Reference: PubChem BioAssay AID1347426 (Functional Genomics Laboratory (NCATS/FGL), 2020)
Among all 31,000 sequences or so, about 1,400 (4.5%) were called active.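 The calls were made as follows: active = median seed-adjusted z-score above 1 or below -1; inactive = the rest.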 The list shows a part of the results.

assay: Novel Modifiers of Survival Motor Neuron (SMN) Protein: Gene Identification via Genome-wide siRNA Screen; details: HEK293T SMN2-luciferase reporter, siRNA knockdown, 72 h; actives lie on both sides;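 also: luminescence tracks full-length SMN protein made from the SMN2 reporter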
How it was run: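 HEK293T cells stably carrying an SMN2 promoter/splicing cassette–luciferase reporter were reverse-transfected with 1 pmol siRNA per well (druggable-genome library, 3 siRNAs per gene) and grown 72 h at 37 °C. Luminescence, normalized to negative-control siRNA and log10-transformed, was scored as MAD.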

| Sequence | median seed-adjusted z-score |
| --- | --- |
| GCUCGUCUCUUACAGAACATT against ZNF391 | inactive: 0.056 |
| GUCUAGAUGAUCACAAGUATT against PSMD1 | active: -1.61 |
| CUUCAAAGGUGACAAGUAUTT against MMP24 | active: -1.28 |
| GCAACUGGUAUUUAACAAUTT against ZDHHC19 | inactive: 0.0354 |
| UCUCCGAGGUUGACAGCGATT against CALML5 | inactive: -0.175 |
| CCACGUAACAUAUUGUGGATT against UHMK1 | inactive: -0.269 |
| GAAUACAACACGUACGGAATT against ZNF555 | inactive: 0.141 |
| GCACCCUAGAGAUCCGGAATT against MYBPH | inactive: 0.0513 |
| CAAUGAUAAACCAAAUCAATT against SNX7 | inactive: 0.146 |
| CAGGUAUUCAGGUCCAUGATT against RASL11B | inactive: 0.507 |
| GUAUCGCUGCUCAACAUCATT against CHD5 | inactive: -0.195 |
| ACAACUCUGUGCACAACAATT against SLC6A19 | inactive: 0.478 |
| ACCCAGAGAUUGCCCAGAATT against WFDC6 | inactive: 0.0443 |
| CUACUGCUGUGGAUUCAAATT against PHF20 | inactive: 0.138 |
| CCAUAACUGUUGUGAGAUUTT against MTMR8 | inactive: -0.416 |
| CAGUCGGAUCCAGAGCUGATT against GCHFR | inactive: -0.559 |
| CUAUCCACCAUACAUUUCATT against NTM | inactive: 0 |
| CGAUGCUGGAGAUUAAUCATT against RDH10 | inactive: -0.28 |
| GAACCUCUAUUGUGGACAATT against TMEM1 | inactive: -0.191 |
| GCAUUCACCGGUUCGUGGATT against GMPPB | inactive: 0.154 |
| CAGUUGAAAUUAAACGGAATT against BRCA2 | inactive: 0 |
| CGACCUGGAUGAUCGAGAUTT against SULT2B1 | inactive: 0 |
| GGGACCUGGUGUUACGGAATT against OTUD7A | inactive: -0.53 |
| GCAAUGAAAAUACUCCGUATT against STK38 | inactive: -0.961 |
| GGGAGAACCGUGAGAAGAUTT against ACTRT2 | inactive: -0.117 |
| CAAUUUCUGUGAGAUGGAUTT against SLPI | inactive: 0.274 |
| CGGAGAACAUUGUUGUUCUTT against TMTC2 | inactive: 0.0277 |

| Sequence | median seed-adjusted z-score |
| --- | --- |
| GAGGCGACAUGUUAGUACATT against SENP1 | inactive: 0.625 |
| UCAGUGAAAUUCCAAUAAATT against GRINA | inactive: 0.175 |
| CAAUCUAUGUCUUCGCCUUTT against ZDHHC9 | inactive: -0.495 |
| CUGCGUUUCUUGAACCUAATT against STK11IP | inactive: 0.0745 |
| GGAAGGCUUUUAGCAAUGATT against ZNF570 | inactive: 0.662 |
| CGCUCAUGACUAUACGCUATT against PTPN11 | inactive: 0.186 |
| GUGGGAACCUUGUCACAUUTT against TAP1 | inactive: -0.506 |
| GCACCUGCAUGACAACGUATT against ADAM8 | inactive: -0.407 |
| GGGAUAAGCAGAGAUCUCATT against POLE4 | inactive: -0.0404 |
| GGUUGAAAAUGGAUUCGAATT against TCF21 | inactive: -0.15 |
| ACUUCUCUUUGAUCUCUGATT against TUBB4 | inactive: 0 |
| GCCUCGUAUAUGUCACUUUTT against ITFG2 | inactive: 0.165 |
| AAACCUAGCCGGCUCCAAATT against MGC21874 | inactive: -0.354 |
| GCAUGAUUCCUAUAGUCAATT against TAF15 | inactive: 0.357 |
| AGACGAUCCGGGUAAAGUUTT against LSM7 | inactive: -0.45 |
| GGGUUAUCUCUUUCAUACATT against CDC25A | inactive: 0.235 |
| CGGUCUUCGGCAACAUUAATT against SLCO2A1 | inactive: -0.0778 |
| CUGUCCAAAUAGCACAUUUTT against ZNF619 | inactive: -0.536 |
| CCAGAGUUCGUCAACUAAATT against PKD2L2 | inactive: -0.0723 |
| GACGUGUAGUGAAUGGGAATT against CBX3 | inactive: -0.893 |
| GCAGAAGUAUGAGCUGCGATT against MFAP4 | inactive: -0.28 |
| GGAUAUUACACCACCAUAUTT against MTMR6 | inactive: -0.395 |
| CACCCGUACAUCCUACUGATT against ZNF746 | inactive: 0.1 |
| GCUAUGAAGUGUAUAAGGATT against PRKG2 | inactive: 0.272 |
| GCAUGAAUGAGAGCCGAUATT against FUT7 | inactive: -0.146 |
| AGUACUUGAUGAAACCAUUTT against ACVR1B | inactive: 0.201 |
| GGACAAAAGGUACUGGUGATT against TCAP | inactive: -0.177 |

Taken from above for reference:

| Sequence | median seed-adjusted z-score |
| --- | --- |
| GCCUCGUAUAUGUCACUUUTT against ITFG2 | inactive: 0.165 |
| AAACCUAGCCGGCUCCAAATT against MGC21874 | inactive: -0.354 |
